Results published in patent US9073912B2, “Azetidine derivatives as antiparasitic agents” (Zoetis LLC, priority 2012, dated 2015).
Some results were stated once for a whole list of compounds, not compound by compound. The name of at least one read-out is uncertain.

System: Ornithidorus turicata
Test: Soft Tick (Ornithidorus turicata) Blood Feed Assay
Conditions: nymph stage ticks fed on treated citrated bovine blood; paralysis and/or death observed at approx. 24, 48 and 72 hours

CC(C)C(=O)N1CC(F)(c2ccc(C3=NNC(c4cc(Cl)c(F)c(Cl)c4)(C(F)(F)F)C3)cc2)C1 (stereo not shown) [Example 14, 1-(3-{4-[5-(3,5-dichloro-4-fluoro-phenyl)-5-trifluoromethyl-4,5-dihydro-1H-pyrazol-3-yl]-phenyl}-3-fluoro-azetidin-1-yl)-2-methyl-propan-1-one]
lethal dose 100% (LD100): < 0.03 µg/mL
